In PMC12548414:
In all, about 1,600 compounds went through this assay and about 20 (1%) showed an effect of 50% or more. This is one part of the list.

What follows are compounds tested on T1, E. coli pLC1021 (luc-trpAt trans-translation reporter). Details: reporter signal, KKL-35 = 100%; rise means trans-translation inhibition; 2 h, 20 µM.
T1 construct: pLC1021 luc-trpAt reporter strain
Parameters: species or system Escherichia coli pLC1021; luc-trpAt non-stop luciferase reporter; luminescence rises when trans-translation is inhibited; normalized to KKL-35 and DMSO
Procedure, shortened: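 Luminescence (560 nm, 10 min after Bright-Glo) reports luciferase that escapes trans-translation tagging, measured after 2 h room-temperature treatment with 20 µM compound. Each plate was scaled between DMSO (negative) and 20 µM KKL-35 (positive) controls. Compounds scoring one standard deviation above the median counted as positive; at least two biological repeats.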

Row | SMILES | % activation [%]
1 | Cc1cc(C)cc(Nc2c([N+](=O)[O-])nn(-c3cccc(Cl)c3)[n+]2[O-])c1 [KKL-1097] | 4
2 | CC1CC(C)(C)Nc2ccc(N=O)cc21 (centres unmarked) [KKL-1625] | 0
3 | CCOC(=O)C1CCCN(Cc2nc(-c3ccc(Cl)cc3)no2)C1 (centres unmarked) [KKL-0486] | 2
4 | COCCN[C@H]1C[C@@H]2c3[nH]c4ccccc4c3C[C@@H](C(=O)OC)N2[C@H](c2ccc(C(F)(F)F)cc2)C1 [KKL-1595] | 0
5 | c1ccc(CN2CCC(Nc3nc(-c4cccs4)nc4ccccc34)CC2)cc1 [KKL-0797] | 0
6 | COCc1nnc(NC(=O)c2nnn(-c3ccc(F)cc3)c2C)s1 [KKL-0929] | 7
7 | O=C1C=C(c2cccs2)C[C@H](c2ccccc2)[C@H]1n1nnc([N+](=O)[O-])n1 [KKL-1517] | 0
8 | CCOC(=O)c1ccc(NC(S)=NCCN2CCc3ccccc3C2)cc1 [KKL-1583] | 0
9 | COc1cc(Cc2cnc(N)nc2N)c2cnccc2c1N(C)C [KKL-1753] | 0
10 | O=C(C[n+]1nc(CNc2ccc(Cl)cc2)n2c1CCCCC2)c1ccc(Br)cc1 [KKL-1021] | 9
11 | COC(=O)[C@@H]1Cc2c([nH]c3ccccc23)[C@H]2C[C@H](NCCN3CCOCC3)C[C@@H](c3ccc(Cl)c(F)c3)N21 [KKL-0314] | 9
12 | COc1ccccc1CN(CCCn1ccnc1)Cc1ccc(Cl)c(Cl)c1 [KKL-0327] | 16
13 | C=CCc1cc(C)ccc1OCCCn1ccnc1 [KKL-1274] | 0
14 | Cc1ccc(C(=O)Nc2ccc([N+](=O)[O-])cc2)s1 [KKL-0604] | 0
15 | COC(=O)COc1ccc(NC(=O)c2cccc(C)c2)cc1 [KKL-1568] | 0
16 | COc1cc(OC)cc(C(=O)Nc2nc(-c3ccccc3)c(-c3ccccc3)o2)c1 [KKL-1025] | 15
17 | O=S(=O)(Nc1cc(Br)c(O)c2ccccc12)c1ccc(F)cc1 [KKL-1482] | 0
18 | CCCC(=O)NC(=S)Nc1ccc(N2CCN(C(=O)c3cccs3)CC2)c(Cl)c1 [KKL-0912] | 0
19 | Nc1ccccc1Nc1ccccc1 [KKL-0803] | 4
20 | O=C(Nc1ccc(OC(F)(F)F)cc1)Nc1cccc([N+](=O)[O-])c1 [KKL-1525] | 0
21 | NC1CCc2nc(-c3cccnc3)nc(Nc3ccc(C(F)(F)F)cc3)c2C1 (centres unmarked) [KKL-0526] | 137
22 | Cn1c(Sc2cnn(-c3ccccc3)c(=O)c2Br)nnc1-c1ccccc1 [KKL-0292] | 0

Fetched by structure from above:
Row | SMILES | % activation [%]
21 | NC1CCc2nc(-c3cccnc3)nc(Nc3ccc(C(F)(F)F)cc3)c2C1 (centres unmarked) [KKL-0526] | 137
16 | COc1cc(OC)cc(C(=O)Nc2nc(-c3ccccc3)c(-c3ccccc3)o2)c1 [KKL-1025] | 15
6 | COCc1nnc(NC(=O)c2nnn(-c3ccc(F)cc3)c2C)s1 [KKL-0929] | 7

(list continues)

Row | SMILES | % activation [%]
23 | CNc1snc(C)c1C(=O)NCCOc1ccc(OC)cc1 [KKL-1874] | 0
24 | CCCCCCCCCC(=NO)c1ccccn1 [KKL-1024] | 15
25 | COc1cc2ccccc2cc1C(=O)NCc1cccc(-c2ccccc2OC)c1 [KKL-1789] | 6
26 | COc1ccc(CCNC(=O)C2(n3cnnn3)CCCCC2)cc1 [KKL-1856] | 3
27 | Cc1ccc(-n2cc(CN3CCC(CO)(Cc4cccc(C(F)(F)F)c4)CC3)cn2)cc1 [KKL-0651] | 0
28 | CCC(C(=O)Nc1ccc(CC(=O)OC)cc1)c1ccccc1 (centres unmarked) [KKL-0614] | 9
29 | CCOC(=O)COc1ccc(S(=O)(=O)Nc2c(C)cccc2CC)cc1 [KKL-1460] | 0
30 | C[C@H]1CN(C(=O)c2cc(-c3cccs3)on2)[C@@H](C)CN1Cc1ccco1 [KKL-0503] | 0
31 | CCOc1ccc2nc(NC(=O)c3ccccn3)sc2c1 [KKL-0810] | 0
32 | CCCOC(=O)c1ccc(NC(=O)c2ccc(Br)o2)cc1 [KKL-1068] | 0
33 | CC(C)(C)c1cc(NCCCn2ccnc2)n2ncc(-c3ccc(Cl)cc3)c2n1 [KKL-1011] | 9
34 | COC(=O)[C@@H](NC(=O)c1cc(COc2cccc(C(F)(F)F)c2)on1)c1ccccc1 [KKL-1189] | 2
35 | Cc1nn2c(O)c3c(nc2c1-c1ccccc1)CCCC3 [KKL-1126] | 0
36 | CSc1ncc(C(=O)NC(C)c2ccc3c(c2)CCC3)cn1 (centres unmarked) [KKL-0694] | 5
37 | OC(COc1ccc2ccccc2c1)CN1CCCN(CC(O)COc2ccc3ccccc3c2)CC1 (centres unmarked) [KKL-1527] | 0
38 | O=C(Nc1ccccc1-c1nc(C2CCC2)cs1)OCC1CCNCC1 [KKL-1752] | 2
39 | COc1ccc(Nc2ncccc2N)cc1 [KKL-1693] | 4
40 | COc1cccc(NC(=O)c2c(NC(=O)c3cccnc3)sc3c2CCC3)c1 [KKL-0594] | 0
41 | O=C(CSc1ccccc1)Nc1ccc(-c2nc3ccccc3c(=O)o2)cc1 [KKL-0595] | 1
42 | CCN1CCN(c2cc(C(C)(C)C)nc3c(-c4ccccc4)c(C)nn23)CC1 [KKL-1010] | 3
43 | O=C(Nc1nnc(C2CC2)s1)c1ccccn1 [KKL-0945] | 0
44 | O=C(Oc1ccccc1)c1ccc(S(=O)(=O)N2CCCCC2)cc1 [KKL-0581] | 2

Exported field by field: entries from further up
CNc1snc(C)c1C(=O)NCCOc1ccc(OC)cc1 [KKL-1874]
  % activation [%]: 0
Cc1nn2c(O)c3c(nc2c1-c1ccccc1)CCCC3 [KKL-1126]
  % activation [%]: 0
O=C(Nc1ccccc1-c1nc(C2CCC2)cs1)OCC1CCNCC1 [KKL-1752]
  % activation [%]: 2

Additional entries follow:

Row | SMILES | % activation [%]
45 | COc1cccc(-c2ccccc2NC(=O)C2CCN(Cc3cccc(SC)c3)CC2)c1 [KKL-1175] | 0
46 | O=[N+]([O-])c1ccc(NC(S)=NCc2ccc(Cl)c(Cl)c2)cc1 [KKL-1540] | 0
47 | COC(=O)COc1ccc(NC(=O)c2ccccc2C)cc1 [KKL-1564] | 0
48 | CCC(NC(=O)c1cnc(SC)nc1)c1ccc(F)cc1 (centres unmarked) [KKL-0704] | 0
49 | CCOC(=O)c1cnc(-n2nc(C)cc2C)nc1Nc1ccc(N(C)C)cc1 [KKL-0889] | 0
50 | Cc1cc2ncn(CCOc3ccc(Cl)cc3)c2cc1C [KKL-0400] | 2
51 | CCCCc1ccc(NC(=S)NC(=O)c2ccc(OCC)c(Cl)c2)cc1 [KKL-0311] | 0
52 | Cc1ccc(C(O)CN2CCC3(CC2)CC(O)c2cc(Cl)ccc2O3)cc1C (centres unmarked) [KKL-0681] | 0
53 | NS(=O)(=O)c1ccc(CCNc2ncnc3c2c(-c2ccccc2)cn3-c2ccc(F)cc2)cc1 [KKL-1049] | 1
54 | C=CCNc1nc(SC)nc2ccccc12 [KKL-1744] | 5
55 | CCCCCCCCn1c2c(c(=N)c3ccccc31)CCC2 [KKL-1637] | 1
56 | CCC(OC(C)=O)c1ccc(OC(C)=O)c(OC)c1 (centres unmarked) [KKL-0758] | 7
57 | N#Cc1ccc(NC(=O)CSc2ccc(Cl)cc2)cc1 [KKL-1571] | 0
58 | CC(C)Oc1cccc(C(=O)C2CCCN(C3CSCCSC3)C2)c1 (centres unmarked) [KKL-0676] | 0
59 | Cc1ccc(CNCc2c(C(=O)N3CCCCCCC3)nc3ccc(Cl)cn23)o1 [KKL-0521] | 2
60 | c1ccc(-c2ncc(-c3ccc(OCCCn4ccnc4)cc3)s2)cc1 [KKL-1776] | 0
61 | COc1ccc2c(c1)NC1(COC3(CCN(Cc4cccc(F)c4)CC3)C1)c1cccn1-2 (centres unmarked) [KKL-1223] | 0
62 | Cc1cc(C)cc(CC(C)Cc2nc3ccccc3[nH]2)c1 (centres unmarked) [KKL-0535] | 1
63 | Cc1ccc(Nc2c(-c3ccccn3)nc3ccc(C)cn23)cc1 [KKL-1199] | 4
64 | CCCCCOc1ccc(C(=O)NCC(=O)NCC(=O)OCC)cc1 [KKL-0985] | 7
65 | OC1(c2ccccc2)Oc2ccccc2N=C1c1ccccc1 (centres unmarked) [KKL-1870] | 2
66 | CN1CCN(c2ccc(C(F)(F)F)cc2NC(=O)c2ccccn2)CC1 [KKL-1836] | 7

Row | SMILES | % activation [%]
67 | CCCCC(=O)NC(=S)Nc1ccc(N2CCN(C(=O)c3ccco3)CC2)c(Cl)c1 [KKL-0965] | 8
68 | CC1(C)Cc2c(cnn2-c2cccc(F)c2)C(NC(=O)c2ccc3c(c2)no[n+]3[O-])C1 (centres unmarked) [KKL-0636] | 5
69 | Cc1nn(Cc2ccccc2)c(Cl)c1C(=O)NC1CCCCCC1 [KKL-1834] | 1
70 | N#Cc1ccc2c(c1)CCN(CCCSc1ccnc3cc(C(F)(F)F)ccc13)CC2 [KKL-1819] | 0
71 | Cc1ccc(CN(CCCn2ccnc2)Cc2ccc(N3CCCC3)c(F)c2)o1 [KKL-1039] | 0
72 | Cc1ccc(NC(=O)c2ccc([N+](=O)[O-])o2)cc1C [KKL-1616] | 4
73 | CCOC(=O)CCc1c(C)c(C#N)c2nc3ccccc3n2c1Cl [KKL-1216] | 0
74 | Cc1c(C(=O)NCC(c2ccc3c(c2)OCO3)N(C)C)oc2c(C)cccc12 (centres unmarked) [KKL-1031] | 0
75 | COC(=O)COc1ccc(-c2ccc(F)cc2)cc1C=O [KKL-1608] | 0
76 | COCC1CCCN(c2nncc(-c3ccc(C4CCCCC4)cc3)n2)C1 (centres unmarked) [KKL-1119] | 0
77 | CCN(CC)S(=O)(=O)c1ccc(Cl)c(C(=O)Oc2cccc3cccnc23)c1 [KKL-1481] | 4
78 | C#CCSc1nnc(-c2ccc([N+](=O)[O-])cc2)o1 [KKL-0433] | 8
79 | CSc1ccc(C(=O)Nc2nc(-c3ccccn3)cs2)cc1 [KKL-1745] | 5
80 | COc1ccc(-c2ncc(CN3CCCC(C(=O)c4ccc(Cl)cc4)C3)cn2)cc1 (centres unmarked) [KKL-1163] | 0
81 | Cc1cc(C)c(C2C3=C(O)c4ccccc4C3=Nc3c2c(C)nn3-c2ccccn2)c(C)c1 (centres unmarked) [KKL-0840] | 0
82 | COC(=O)[C@@H]1Cc2c([nH]c3ccccc23)[C@H]2C[C@H](NCCNC(C)=O)C[C@@H](c3ccc(OC(F)(F)F)cc3)N21 [KKL-0306] | 20
83 | COc1ccc(-c2ncc(CN3CCCC(C(=O)c4ccccc4SC)C3)cn2)cc1 (centres unmarked) [KKL-0316] | 0
84 | CCN1/C(=C/c2sc3ccccc3[n+]2C)C=Cc2cccc(C)c21 [KKL-1643] | 0
85 | Cc1ccc(-n2c(=O)oc3ccc(Cl)cc3c2=O)cc1Cl [KKL-0729] | 0
86 | Cn1cc(C(=O)CCl)c2ccccc21 [KKL-1621] | 1
